# Measurements: the supplement of paper PMC10338343
# ± gives the standard deviation. Only a part is listed here, and it is no random draw. The uncertainty is large for many entries.
# Test system: EfPiwi piRISC loaded with piRNA #1 (26 nt)
# Assay: pre-steady-state target cleavage rate (min^-1); guide: piRNA #1 5'p-UGAGGUAGUAGGUUGUAUAGUAUCCA; MIWI and MILI are mouse PIWI proteins and EfPiwi is from a freshwater sponge; tags in brackets are library labels; higher = faster piRNA-guided slicing of the target
# Conditions: auxiliary factor: 500 nM Ephydatia muelleri Gtsf1
# How it was run: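 The method was Cleave-'n-Seq, in which uncleaved targets from a transcribed, DNA-blocked target RNA library were sequenced after exposure to active affinity-purified piRISC carrying one synthetic guide, with or without GTSF1 partner protein. Reactions contained 0.1 nM library, 1 nM piRISC and, where present, 500 nM GTSF1 in HEPES–potassium acetate buffer at 33 °C for 0–8 or 0–960 min. Reads were normalised to depth and to weakly complementary targets, three trials were pooled, and k3 was capped at 0.0001 min^-1. The pre-steady-state cleavage rate came from a burst-and-steady-state fit.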
row,Sequence,pre-steady-state target cleavage rate
1,GGAGAGGAUUCUAUACAACCUACUACCUGA,0.00208 ± 0.0025
2,GGAGACGAUACUUUUCAACCUACUACCUCA,0.00363 ± 0.0038
3,GGAGACCUAACUAUACAACCUACAUACCUCA,0.00151 ± 0.0062
4,GGAGUGGAUACUAAACAACCAACUACCUCA,0.0031 ± 0.0017
5,GGAGACCUAUGAUAUGUUGCUACACCUCA,0.000331 ± 0.005
6,GGAGAGGAUACUAUACAACGAACUACCUCA,0.00227 ± 0.0025
7,GGAGUGGAUACUAUACAAGGAUGAUGGAGA [g13:g26:cont:t1A],0.000346 ± 0.01
8,GGAGUGGAAACUAUACAACCUACUACCACA,0.00336 ± 0.0029
9,GGAGACCAUACUAUACUACCUACUACCUCA,0.00859 ± 0.0036
10,GGAGUGGAACUAUACAACCUACUACCUCA,0.00244 ± 0.0056
11,GGAGACCUAUCUAUACAACCUUCUACCUCA,0.00257 ± 0.0038
12,GGAGACCAAACUAAACAACCUACUACCUCA,0.00793 ± 0.0036
13,GGAGACGAUACUAUACAACGAACUACCUCA,0.00251 ± 0.0024
14,GGAGACGAUACUAUACAACGUACUACCUCA,0.00525 ± 0.0016
15,GGAGACCUUACUAUACAACGUAGUACCUCA,0.0032 ± 0.0044

# An excerpt of these results, with tabs:
row	Sequence	pre-steady-state target cleavage rate
1	GGAGAGGAUUCUAUACAACCUACUACCUGA	0.00208 ± 0.0025
2	GGAGACGAUACUUUUCAACCUACUACCUCA	0.00363 ± 0.0038
3	GGAGACCUAACUAUACAACCUACAUACCUCA	0.00151 ± 0.0062
4	GGAGUGGAUACUAAACAACCAACUACCUCA	0.0031 ± 0.0017
